PubChem BioAssay AID1259284 – Sanger Institute – 2017
Assay: 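Kinase genes needed for growth or acting with cancer drugs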 (primary screen). Cell system: SW48 human colorectal cancer cells. Reagents: siRNA pool against human genes. Conditions: anchor drug BYL719 at 1 µM, cetuximab at 5 µg/ml or trametinib at 10 nM, or DMSO vehicle alone. Read-out: 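Viability scaled to non-targeting control pool, robust z-score from controls, and synergy scores for each drug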. Reading the numbers: robust z-score, no drug: higher = more cells survive knock-down; viability, no drug: higher = more viable cells. Rule for the call: 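Called essential when the robust z-score of viability without drug falls below -3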. Calls: active = essential without drug; inactive = no change without drug.
In all, the deposit lists 794 reagents; this is a part drawn at random. Of all reagents, 16 (2%) are marked active. 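Calls concern knock-down without drug only; drug synergy was judged apart, with scores above 0.15 taken as synergy.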 Viability is capped at 1. Further read-outs or replicates are left out here. Not stated in the record: the amount of reagent, the time to read-out.

For EPHB2 (EPH receptor B2), what does the deposit list?
robust z-score, no drug: 0.426; viability, no drug (fraction of control): 1; Outcome: inactive

With ULK1 (unc-51 like autophagy activating kinase 1), what does the deposit list?
robust z-score, no drug: 0.426; viability, no drug (fraction of control): 1; Outcome: inactive

With PANK2 (pantothenate kinase 2), how do the results read?
robust z-score, no drug: -1.76; viability, no drug (fraction of control): 0.812; Outcome: inactive

What is on record for IRAK1 (interleukin 1 receptor associated kinase 1)?
robust z-score, no drug: -0.19; viability, no drug (fraction of control): 0.947; Outcome: inactive

With CDK10 (cyclin dependent kinase 10), how do the results read?
robust z-score, no drug: 0.426; viability, no drug (fraction of control): 1; Outcome: inactive

Which result is listed for CREBBP (CREB binding lysine acetyltransferase)?
robust z-score, no drug: 0.426; viability, no drug (fraction of control): 1; Outcome: inactive

What did the screen give for PDGFRL (platelet derived growth factor receptor like)?
robust z-score, no drug: 0.426; viability, no drug (fraction of control): 1; Outcome: inactive

What is on record for JAK2 (Janus kinase 2)?
robust z-score, no drug: 0.426; viability, no drug (fraction of control): 1; Outcome: inactive

For GSK3A (glycogen synthase kinase 3 alpha), what was measured?
robust z-score, no drug: 0.426; viability, no drug (fraction of control): 1; Outcome: inactive

For CDC7 (cell division cycle 7), how do the results read?
robust z-score, no drug: -0.334; viability, no drug (fraction of control): 0.935; Outcome: inactive

What did the screen give for NF1 (neurofibromin 1)?
robust z-score, no drug: 0.426; viability, no drug (fraction of control): 1; Outcome: inactive

What did the screen give for AK3 (adenylate kinase 3)?
robust z-score, no drug: 0.426; viability, no drug (fraction of control): 1; Outcome: inactive

For SRGAP3 (SLIT-ROBO Rho GTPase activating protein 3), how do the results read?
robust z-score, no drug: 0.426; viability, no drug (fraction of control): 1; Outcome: inactive

What did the screen give for FGFR1 (fibroblast growth factor receptor 1)?
robust z-score, no drug: 0.426; viability, no drug (fraction of control): 1; Outcome: inactive

Which result is listed for DLG3 (discs large MAGUK scaffold protein 3)?
robust z-score, no drug: 0.426; viability, no drug (fraction of control): 1; Outcome: inactive

With PRKCSH (PRKCSH beta subunit of glucosidase II), what does the deposit list?
robust z-score, no drug: -1.52; viability, no drug (fraction of control): 0.833; Outcome: inactive

Individual results from the list:
Result of PRKCSH (PRKCSH beta subunit of glucosidase II) in “viability, no drug (fraction of control)”: 0.833
Entry of GSK3A (glycogen synthase kinase 3 alpha) in “viability, no drug (fraction of control)”: 1
For “Outcome”, CDK10 (cyclin dependent kinase 10) has inactive
Under “Outcome”, PDGFRL (platelet derived growth factor receptor like) reads inactive
For “robust z-score, no drug”, SRGAP3 (SLIT-ROBO Rho GTPase activating protein 3) is entered as 0.426

Further results follow:
How did the screen score OBSCN?
robust z-score, no drug: 0.426; viability, no drug (fraction of control): 1; Outcome: inactive

How did the screen score PRKAG1 (protein kinase AMP-activated non-catalytic subunit gamma 1)?
robust z-score, no drug: 0.426; viability, no drug (fraction of control): 1; Outcome: inactive

For PFKFB2 (6-phosphofructo-2-kinase/fructose-2,6-biphosphatase 2), what does the deposit list?
robust z-score, no drug: 0.426; viability, no drug (fraction of control): 1; Outcome: inactive

What did the screen give for NADK (NAD kinase)?
robust z-score, no drug: 0.426; viability, no drug (fraction of control): 1; Outcome: inactive

For ITPKA (inositol-trisphosphate 3-kinase A), what was measured?
robust z-score, no drug: 0.426; viability, no drug (fraction of control): 1; Outcome: inactive

What is on record for DGKG (diacylglycerol kinase gamma)?
robust z-score, no drug: 0.426; viability, no drug (fraction of control): 1; Outcome: inactive

What is on record for BMPR2 (bone morphogenetic protein receptor type 2)?
robust z-score, no drug: 0.341; viability, no drug (fraction of control): 0.993; Outcome: inactive

How did the screen score DBF4 (DBF4-CDC7 kinase regulatory subunit)?
robust z-score, no drug: 0.426; viability, no drug (fraction of control): 1; Outcome: inactive

What is on record for PFKP (phosphofructokinase, platelet)?
robust z-score, no drug: 0.426; viability, no drug (fraction of control): 1; Outcome: inactive

For PIM2 (Pim-2 proto-oncogene, serine/threonine kinase), what does the deposit list?
robust z-score, no drug: -1.11; viability, no drug (fraction of control): 0.868; Outcome: inactive

What is on record for JAK1 (Janus kinase 1)?
robust z-score, no drug: 0.426; viability, no drug (fraction of control): 1; Outcome: inactive

What did the screen give for FXN (frataxin)?
robust z-score, no drug: 0.426; viability, no drug (fraction of control): 1; Outcome: inactive
